No constants are given. Whether binding was seen depends on the method and setting. In cells and extracts the contact can be indirect. A yes stands for co-enrichment or nearness to the bait. Other partners may have been found. Sequences can lack the tags named with a protein.

The chains behind the UniProt entries cited, without tags or fusion partners.
UniProt P68871: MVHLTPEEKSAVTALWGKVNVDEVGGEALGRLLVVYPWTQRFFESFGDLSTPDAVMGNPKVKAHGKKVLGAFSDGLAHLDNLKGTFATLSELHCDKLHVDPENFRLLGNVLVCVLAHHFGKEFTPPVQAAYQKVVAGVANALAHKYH
UniProt P52732: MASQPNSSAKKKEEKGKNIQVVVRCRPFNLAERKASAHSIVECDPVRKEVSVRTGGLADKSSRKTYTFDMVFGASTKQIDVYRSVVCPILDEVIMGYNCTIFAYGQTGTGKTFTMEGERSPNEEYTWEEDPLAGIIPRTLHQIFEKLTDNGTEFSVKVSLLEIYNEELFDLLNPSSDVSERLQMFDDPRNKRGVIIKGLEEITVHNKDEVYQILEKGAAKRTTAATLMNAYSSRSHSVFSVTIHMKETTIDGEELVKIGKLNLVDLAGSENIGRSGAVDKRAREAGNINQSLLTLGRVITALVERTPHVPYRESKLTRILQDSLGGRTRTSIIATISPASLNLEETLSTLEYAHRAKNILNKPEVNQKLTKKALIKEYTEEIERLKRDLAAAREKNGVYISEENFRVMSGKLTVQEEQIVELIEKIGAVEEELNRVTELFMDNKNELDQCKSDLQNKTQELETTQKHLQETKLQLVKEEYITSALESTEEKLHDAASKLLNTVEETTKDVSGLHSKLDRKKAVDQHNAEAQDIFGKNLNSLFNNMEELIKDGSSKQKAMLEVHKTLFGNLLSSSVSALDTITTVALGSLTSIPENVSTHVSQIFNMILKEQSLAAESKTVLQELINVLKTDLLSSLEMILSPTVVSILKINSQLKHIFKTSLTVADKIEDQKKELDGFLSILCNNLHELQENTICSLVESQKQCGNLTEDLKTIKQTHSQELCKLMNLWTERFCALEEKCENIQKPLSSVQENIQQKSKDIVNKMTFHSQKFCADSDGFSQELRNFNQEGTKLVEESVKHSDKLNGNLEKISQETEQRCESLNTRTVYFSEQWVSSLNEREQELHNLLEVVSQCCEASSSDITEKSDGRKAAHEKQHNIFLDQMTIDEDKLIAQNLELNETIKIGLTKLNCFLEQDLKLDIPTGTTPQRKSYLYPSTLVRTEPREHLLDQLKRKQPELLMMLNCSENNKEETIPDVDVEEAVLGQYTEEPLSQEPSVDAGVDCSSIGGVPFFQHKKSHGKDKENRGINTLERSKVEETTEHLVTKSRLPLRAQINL
UniProt O14744: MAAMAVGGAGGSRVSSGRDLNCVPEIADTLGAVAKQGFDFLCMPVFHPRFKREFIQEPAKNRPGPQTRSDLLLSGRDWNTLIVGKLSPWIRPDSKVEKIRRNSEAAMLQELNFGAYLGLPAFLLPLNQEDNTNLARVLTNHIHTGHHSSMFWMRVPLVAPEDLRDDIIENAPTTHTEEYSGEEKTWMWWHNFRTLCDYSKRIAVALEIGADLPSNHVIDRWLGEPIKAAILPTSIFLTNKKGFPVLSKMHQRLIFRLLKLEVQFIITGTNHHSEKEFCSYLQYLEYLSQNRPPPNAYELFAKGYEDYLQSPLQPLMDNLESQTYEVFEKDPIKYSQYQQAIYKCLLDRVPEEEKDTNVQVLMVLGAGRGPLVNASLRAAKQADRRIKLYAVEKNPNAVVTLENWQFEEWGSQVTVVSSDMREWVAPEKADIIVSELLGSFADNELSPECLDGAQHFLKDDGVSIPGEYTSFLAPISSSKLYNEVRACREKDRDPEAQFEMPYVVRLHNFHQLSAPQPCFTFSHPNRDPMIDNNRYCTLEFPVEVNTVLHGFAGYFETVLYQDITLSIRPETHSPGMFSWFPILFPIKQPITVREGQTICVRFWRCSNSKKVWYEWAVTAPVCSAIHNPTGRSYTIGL

B1: PPM1B (protein, UniProt O75688 1-479)
chain: MGAFLDKPKTEKHNAHGAGNGLRYGLSSMQGWRVEMEDAHTAVVGIPHGLEDWSFFAVYDGHAGSRVANYCSTHLLEHITTNEDFRAAGKSGSALELSVENVKNGIRTGFLKIDEYMRNFSDLRNGMDRSGSTAVGVMISPKHIYFINCGDSRAVLYRNGQVCFSTQDHKPCNPREKERIQNAGGSVMIQRVNGSLAVSRALGDYDYKCVDGKGPTEQLVSPEPEVYEILRAEEDEFIILACDGIWDVMSNEELCEYVKSRLEVSDDLENVCNWVVDTCLHKGSRDNMSIVLVCFSNAPKVSDEAVKKDSELDKHLESRVEEIMEKSGEEGMPDLAHVMRILSAENIPNLPPGGGLAGKRNVIEAVYSRLNPHRESDGASDEAEESGSQGKLVEALRQMRINHRGNYRQLLEEMLTSYRLAKVEGEESPAEPAATATSSNSDAGNPVTMQESHTESESGLAELDSSNEDAGTKMSGEKI
B2: PTGES3 (protein, UniProt Q15185 1-160)
chain: MQPASAKWYDRRDYVFIEFCVEDSKDVNVNFEKSKLTFSCLGGSDNFKHLNEIDLFHCIDPNDSKHKRTDRSILCCLRKGESGQSWPRLTKERAKLNWLSVDFNNWKDWEDDSDEDMSNFDRFSEMMNNMGGDEDVDLPEVDGADDDSQDSDDEKMPDLE

This test concerns the target T1, Flag-tagged EWSR1(2-325)-ATF1(66-271) fusion (UniProt Q01844).
T1 sequence: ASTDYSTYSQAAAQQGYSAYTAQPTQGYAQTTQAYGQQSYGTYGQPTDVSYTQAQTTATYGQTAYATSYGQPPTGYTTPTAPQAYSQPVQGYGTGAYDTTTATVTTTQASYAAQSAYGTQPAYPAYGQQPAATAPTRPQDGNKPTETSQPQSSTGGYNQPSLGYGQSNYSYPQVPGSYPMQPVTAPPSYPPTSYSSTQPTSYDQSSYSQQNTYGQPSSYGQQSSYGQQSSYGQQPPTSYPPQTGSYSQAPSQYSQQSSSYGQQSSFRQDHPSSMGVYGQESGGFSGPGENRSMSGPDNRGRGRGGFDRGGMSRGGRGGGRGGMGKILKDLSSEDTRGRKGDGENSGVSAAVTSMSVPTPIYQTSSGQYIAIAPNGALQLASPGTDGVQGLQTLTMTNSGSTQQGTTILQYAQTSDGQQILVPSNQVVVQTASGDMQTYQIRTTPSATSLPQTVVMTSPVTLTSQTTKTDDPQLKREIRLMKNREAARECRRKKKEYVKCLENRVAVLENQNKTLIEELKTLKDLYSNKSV
The test is described as follows: affinity purification with mass spectrometry.
On to HBB (from UniProt P68871 1-147), for which the binding entry is on record as “binds”.
Take KIF11 (from UniProt P52732 1-1056): the binding result is “binds”.
To “protein arginine methyltransferase 5 (PRMT5) (from UniProt O14744 1-637) (enzyme)” belongs “binds”; to B1, “binds”; to B2, “binds”.

The values above are taken from publication doi:10.1101/2022.03.23.485409.
